{
  "sequences": {"note": "Protein sequences, listed by entry. Tags and fused reporters are not part of them. Residues count along the entry.", "UniProt O43426, residues 528-873": "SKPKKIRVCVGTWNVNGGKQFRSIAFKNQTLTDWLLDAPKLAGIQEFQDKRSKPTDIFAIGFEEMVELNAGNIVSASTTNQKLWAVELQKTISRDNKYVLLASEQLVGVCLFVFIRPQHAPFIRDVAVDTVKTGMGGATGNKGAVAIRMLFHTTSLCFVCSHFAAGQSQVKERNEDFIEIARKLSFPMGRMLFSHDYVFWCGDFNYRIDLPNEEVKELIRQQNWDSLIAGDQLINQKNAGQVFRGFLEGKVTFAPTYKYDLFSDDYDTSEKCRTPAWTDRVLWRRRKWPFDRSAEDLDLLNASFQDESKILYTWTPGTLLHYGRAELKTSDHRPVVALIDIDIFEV"},
  "source": "patent US20240027467A1",
  "key": {"[1]": {"target": "recombinant human Synaptojanin1 (528-873) (human) (UniProt O43426)", "experiment": "NANEX column, elution with CA13080"}, "[2]": {"target": "recombinant human Synaptojanin1 (528-873) (human) (UniProt O43426)", "experiment": "displacement of Synaptojanin from immobilised CA13016 (NANEX column) by CA13080; A280 and SDS-PAGE"}},
  "note": "These are yes or no findings as the source states them, for the method shown. Some results given as binding are weak or reduced against the parent protein; the word gives no strength. Tags and fused reporters may be left off the sequences shown.",
  "data": [
    {"binder": "CA13080 Synaptojanin-specific Nb (Stripper; C-term. 6xHis+EPEA) (VHH) VHH: QVQLVESGGGLVQAGGSLRLSCAASRFMFDDYIIGWFRQAPGKEREGVSCISNSDGSTNYADSVKGRFTISSDNARNAVYLQMNSLKPEDTAVYYCAAQRAFMTRLCLNIYYAHWGQGTQVTVSS", "values": [
      {"measurement": "binding", "setting": "[1]", "value": "binds"},
      {"measurement": "binding", "setting": "[2]", "value": "binds"}
    ]}
  ]
}
